Measured values from article PMC6943670, “Investigating the Binding Mode of Reversible LSD1 Inhibitors Derived from Stilbene Derivatives by 3D-QSAR, Molecular Docking, and Molecular Dynamics Simulation” (Molecules, 2019).
Structures were worked out from names or drawings and are uncertain.

Target: LSD1 (Homo sapiens, UniProt O60341)
Experiment: LSD1 enzyme inhibition assay (H3K4me2 substrate, Amplex Red/HRP fluorescence)
Conditions: newly synthesized compounds

For O=C(/C=C/c1ccc(/C=C/c2ccc3c(c2)CCO3)cc1)NO, the IC50 was 4.67 µM and the pIC50 was 5.331.
